# The supplement of paper PMC4749390
# Values joined by “and” are separate entries in the source; they are usually repeats but may differ in a detail not shown here. Equal values may be shown once. Where a name gives a salt, the structure may show the parent alone. The list shows a part of the results. Single values are uncertain here, since repeats match poorly.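 JEG3 cells stably express tetracycline-inducible wild-type human LRH-1, a highly sumoylated nuclear receptor. SUMO-sensitive transcripts APOC3 and MUC1, increased by SUMO-deficient LRH-1 or UBC9 knockdown, were quantified by RT-qPCR relative to TBP and DMSO controls. Primary hits had robust Z-scores above +2 or below -2, before toxicity and TBP filtering.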
# Tested on: JEG3 expressing hLRH-1
# Experiment: APOC3 transcript change (ddCt vs TBP and DMSO), Z-score over library; higher = higher APOC3 expression
# Conditions: 10 µM; time (hr): 24
row,SMILES,APOC3 transcript change (Z-score)
1,CC/C(=C(\c1ccccc1)c1ccc(OCCN(C)C)cc1)c1ccccc1 [Tamoxifen citrate],1.05
2,CCCc1nc(C(C)(C)O)c(C(=O)OCc2oc(=O)oc2C)n1Cc1ccc(-c2ccccc2-c2nn[nH]n2)cc1 [olmesartan medoxomil],0.297
3,CC(C(=O)O)c1cccc(CC2CCCC2=O)c1 (stereo unspecified) [loxoprofen],-0.107
4,CCCCC(CC)C/N=C(N)/N=C(\N)NCCCCCCN/C(N)=N/C(N)=N/CC(CC)CCCC (stereo unspecified) [alexidine hydrochloride],-0.578
5,C[C@@H](O)[C@H]1C(=O)N2C(C(=O)O)=C(SCC/N=C/N)C[C@H]12 [imipenem],0.29
6,C[C@]12CCC(=O)C=C1CCC1C2[C@@H](O)C[C@@]2(C)C1CC[C@]2(O)C(=O)CO (stereo partly specified) [hydrocortisone],-0.295
7,CO[C@H]1C[C@@H]2CC[C@@H](C)[C@@](O)(O2)C(=O)C(=O)N2CCCC[C@H]2C(=O)O[C@H]([C@H](C)C[C@@H]2CC[C@@H](O)[C@H](OC)C2)CC(=O)[C@H](C)/C=C(\C)[C@@H](O)[C@@H](OC)C(=O)[C@H](C)C[C@H](C)/C=C/C=C/C=C/1C [sirolimus],0.134
8,CN[C@@H]1[C@H](OC2[C@H](O[C@H]3[C@H](O)[C@@H](O)[C@H](N=C(N)N)[C@@H](O)[C@@H]3N=C(N)N)O[C@@H](C)[C@]2(O)C=O)O[C@@H](CO)[C@H](O)[C@H]1O (stereo partly specified) [streptomycin sulfate],-1.02
9,C#C[C@]1(O)CC[C@H]2[C@@H]3CCc4cc(OC)ccc4[C@H]3CC[C@@]21C [mestranol],0.27
10,Cc1c(C(N)=O)cc([N+](=O)[O-])cc1[N+](=O)[O-] [dinitolmide],0.214
11,CCN1CCCC1CNC(=O)c1cc(S(=O)(=O)CC)c(N)cc1OC (stereo unspecified) [amisulpride],-0.99
12,Cc1nc(C)c(Cl)c(O)c1Cl [clopidol],-0.0783
13,Nc1nc(F)nc2c1ncn2[C@@H]1O[C@H](COP(=O)(O)O)[C@@H](O)[C@@H]1O [fludarabine phosphate],-0.2
14,C#C[C@]1(O)CCC2C3CCC4=CC(=O)CC[C@@H]4C3CC[C@@]21C (stereo partly specified) [norethindrone],0.355
15,NC(N)=O [urea],0.264
16,CNCC[C@H](Oc1cccc2ccccc12)c1cccs1 [duloxetine hydrochloride],0.601
17,N[C@H](Cc1ccccc1)C(=O)O [d-phenylalanine],0.798
18,CNC[C@H](O)c1cccc(O)c1 [Phenylephrine hydrochloride],-0.647
19,COc1ccc2cc(CCC(C)=O)ccc2c1 [nabumetone],1.02
20,COCCO/C(O)=C1\C(C)=NC(C)=C(C(=O)OC(C)C)C1c1cccc([N+](=O)[O-])c1 (stereo unspecified) [Nimodipine],0.594
21,CC(/N=C(\NC#N)Nc1ccncc1)C(C)(C)C (stereo unspecified) [Pinacidil],0.587
22,CC(C)(CO)[C@@H](O)C(=O)NCCCO [dexpanthenol],-0.381
23,OC(CCN1CCCCC1)(c1ccccc1)C1CC2C=CC1C2 (stereo unspecified) [biperiden],-0.742
24,CCOC(=O)[C@H](CCc1ccccc1)N[C@@H](C)C(=O)N1[C@H](C(=O)O)C[C@H]2CCCC[C@@H]21 [trandolapril],0.333

# 3 structures already listed, arranged by heavy-atom count, rising:
row,SMILES,APOC3 transcript change (Z-score)
12,Cc1nc(C)c(Cl)c(O)c1Cl [clopidol],-0.0783
21,CC(/N=C(\NC#N)Nc1ccncc1)C(C)(C)C (stereo unspecified) [Pinacidil],0.587
4,CCCCC(CC)C/N=C(N)/N=C(\N)NCCCCCCN/C(N)=N/C(N)=N/CC(CC)CCCC (stereo unspecified) [alexidine hydrochloride],-0.578

# The list goes on:

row,SMILES,APOC3 transcript change (Z-score)
1,CCC(c1ccc(O)cc1)C(CC)c1ccc(O)cc1 (stereo unspecified) [hexestrol],0.33
2,CC(C[N+](C)(C)C)OC(N)=O (stereo unspecified) [Bethanechol chloride],0.0506
3,C[C@H]1[C@H](NC(=O)/C(=N\OC(C)(C)C(=O)O)c2csc(N)n2)C(=O)N1S(=O)(=O)O [aztreonam],0.734
4,CCCCCCCCCCCCCCCC(=O)OCC(O)[C@H]1OC(O)=C(O)C1=O (stereo partly specified) [ascorbyl palmitate],-0.0886
5,CC(=O)N1CCN(c2ccc(OCC3CO[C@](Cn4ccnc4)(c4ccc(Cl)cc4Cl)O3)cc2)CC1 (stereo partly specified) [ketoconazole],-0.352
6,CO/N=C1\CN(c2nc3c(cc2F)c(=O)c(C(=O)O)cn3C2CC2)CC1CN (stereo unspecified) [gemifloxacin mesylate],0.377
7,O=C(Nc1ccc(C(=O)O)c(O)c1)c1ccccc1 [benzoylpas],0.363
8,c1ccc(C2CN3CCSC3=N2)cc1 (stereo unspecified) [tetramizole hydrochloride],-3.05
9,C[C@@H]1CN(c2c(F)c(N)c3c(=O)c(C(=O)O)cn(C4CC4)c3c2F)C[C@H](C)N1 [sparfloxacin],0.113
10,"Nc1c2c(nc3ccccc13)CCCC2 [9-Amino-1,2,3,4-tetrahydroacridine hydrochloride]",1.8
11,[NH2][Pt]([NH2])([Cl])[Cl] [cisplatin],0.0393
12,OC(CCN1CCCCC1)(c1ccccc1)c1ccccc1 [pridinol methanesulfonate],0.446
13,CC1(C)S[C@@H]2[C@H](NC(=O)[C@H](C(=O)O)c3cccs3)C(=O)N2[C@H]1C(=O)O [ticarcillin disodium],1.52
14,CCC1=C[C@@H]2CN(C1)Cc1c([nH]c3ccccc13)[C@@](C(=O)OC)(c1cc3c(cc1OC)N(C)[C@H]1[C@@](O)(C(=O)OC)[C@H](OC(C)=O)[C@]4(CC)C=CCN5CC[C@]31[C@@H]54)C2 [vinorelbine],-1.81
15,OCc1ccccc1 [benzyl alcohol],-1.3
16,CN(C)c1ccc2nc3ccc(N(C)C)cc3[s+]c2c1 [methylene blue],-0.692
17,CCOC(=O)CCC(=O)O[C@H]1[C@H](O[C@@H]2[C@@H](C)[C@H](O[C@H]3C[C@@](C)(OC)[C@@H](O)[C@H](C)O3)[C@@H](C)C(=O)O[C@H](CC)[C@@](C)(O)[C@H](O)[C@@H](C)C(=O)[C@H](C)C[C@@]2(C)O)O[C@H](C)C[C@@H]1N(C)C [erythromycin ethylsuccinate],-0.383
18,O=C1c2ccccc2C(=O)C1c1ccc(Br)cc1 [bromindione],0.41
19,Nc1ccc(C(=O)Oc2ccccc2)c(O)c1 [fenamisal],0.427
20,COc1ccc2c(c1)c(CC(=O)OCC(=O)O)c(C)n2C(=O)c1ccc(Cl)cc1 [acemetacin],-1.06
21,CC(O)Cn1cnc2c1c(=O)n(C)c(=O)n2C (stereo unspecified) [proxyphylline],0.535
22,CN(Cc1cc(Br)cc(Br)c1N)C1CCCCC1 [bromhexine hydrochloride],0.143
23,Nc1ncnc2c1ncn2[C@@H]1O[C@H](COP(=O)(O)O)[C@@H](O)[C@H]1O [adenosine phosphate],-0.397
24,O=c1oc2c(O)c(O)cc3c(=O)oc4c(O)c(O)cc1c4c23 [ellagic acid],-0.244

row,SMILES,APOC3 transcript change (Z-score)
1,CCCc1nc(C)c2c(O)nc(-c3cc(S(=O)(=O)N4CCN(CC)CC4)ccc3OCC)nn12 [vardenafil hydrochloride],0.8
2,NC(=O)N/N=C/c1ccc([N+](=O)[O-])o1 [nitrofurazone],-0.872
3,CC(C)Cc1ccc(C(C)C(=O)O)cc1 (racemic) [(±)-Ibuprofen],0.862
4,CCOc1nc2cccc(C(=O)OCc3oc(=O)oc3C)c2n1Cc1ccc(-c2ccccc2-c2noc(O)n2)cc1 [azilsartan kamedoxomil],-0.499
5,C[N+]1(C)CCC(OC(=O)C(O)(c2ccccc2)C2CCCC2)C1 (stereo unspecified) [glycopyrrolate],0.787
6,CC(=O)OCC(=O)[C@@]1(O)CC[C@H]2[C@@H]3CCC4=CC(=O)C=C[C@]4(C)[C@@]3(F)[C@@H](O)C[C@@]21C [isoflupredone acetate],0.578
7,CCCCC(=O)O[C@]1(C(=O)CO)[C@@H](C)C[C@H]2[C@@H]3CCC4=CC(=O)C=C[C@]4(C)[C@@]3(F)[C@@H](O)C[C@@]21C [betamethasone valerate],0.649
8,OC[C@@H](O)[C@@H](O)[C@H](O)[C@@H](O)CO [mannitol],-1.61
9,C#C[C@]1(O)CC[C@H]2[C@@H]3[C@H](C)CC4=C(CCC(=O)C4)[C@H]3CC[C@@]21C [tibolone],-1.24
10,CCn1cc(C(=O)O)c(=O)c2cnc(N3CCNCC3)nc21 [pipemidic acid],-0.283
11,Oc1ccc(O)cc1 [hydroquinone],0.233
12,CC(=O)N[C@@H](CC(C)C)C(=O)O [acetyl-l-leucine],-0.204
13,NCC1CCCCC1CC(=O)O (stereo unspecified) [gabapentin],-0.359
14,O=C(O)c1cc(=O)c2c(OCC(O)COc3cccc4oc(C(=O)O)cc(=O)c34)cccc2o1 [cromolyn sodium],0.755
15,CC1(C)O[C@@H]2C[C@H]3[C@@H]4CCC5=CC(=O)C=C[C@]5(C)[C@H]4[C@@H](O)C[C@]3(C)[C@]2(C(=O)CO)O1 [desonide],2.11
16,CCCCNc1cc(C(=O)O)cc(S(N)(=O)=O)c1Oc1ccccc1 [bumetanide],-0.0902
17,C[C@]12CCC3c4ccc(O)cc4CCC3C1CCC2=O (stereo partly specified) [estrone],0.248
18,COC(=O)Nc1nc2cc(C(=O)c3ccccc3)ccc2[nH]1 [mebendazole],-1.38
19,CCCCOc1ccc(C(=O)CCN2CCCCC2)cc1 [dyclonine hydrochloride],0.387 and 0.426
20,CNC(C)[C@@H]1CC[C@@H](N)[C@@H](OC2[C@@H](N)C[C@@H](N)[C@H](OC3OC[C@](C)(O)[C@H](NC)[C@H]3O)[C@H]2O)O1 (stereo partly specified) [gentamicin sulfate],-0.881
21,CN(C)[C@@H]1C(=O)C(C(N)=O)=C(O)[C@@]2(O)C(=O)C3=C(O)c4c(O)ccc(Cl)c4[C@@H](O)[C@H]3C[C@@H]12 [demeclocycline hydrochloride],-0.761
22,C[C@H]1COc2c(N3CCN(C)CC3)c(F)cc3c(=O)c(C(=O)O)cn1c23 [levofloxacin],-0.39
23,Nc1c(Br)cc(Br)cc1CNC1CCC(O)CC1 (stereo unspecified) [ambroxol hydrochloride],0.599
